This is one part of the list. Repeats are few or missing, and single values can be far off.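 The apoptosis fraction was the count of cleaved-PARP antibody-stained nuclei relative to all DNA-stained nuclei, imaged in 1,536-well plates. Screening doses were set so most cells survived, and baseline and induced cleaved-PARP levels vary greatly across cell lines.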

Consider 31 molecules from the supplement of paper PMC4604168 (melanoma cell lines).

The subject of the first test is IST-MEL1. The test is described as follows: cleaved PARP positive nuclei fraction relative to DMSO control; melanoma cells; higher = more apoptosis. The following applies: library dose: low library concentration; 72 h.
Consider `Cn1cnc2c(F)c(Nc3ccc(Br)cc3Cl)c(C(=O)NOCCO)cc21` [selumetinib] + O=C(Nc1ccccc1)c1cc([N+](=O)[O-])ccc1Cl [GW9662] (first compound 0.015 µM, partner dose 2 µM), for which the “cleaved PARP positive nuclei fraction” value is 129%.

`C[C@@H](N)c1ccc(C(=O)Nc2ccnc3[nH]ccc23)cc1` + COc1ccc2c(c1)CCC1C2CCC2(C)C(NCCCCCCN3C(=O)C=CC3=O)CCC12 [U73122] (first compound 0.4 µM, partner dose 0.4 µM): the “cleaved PARP positive nuclei fraction” value was determined as 251%.

`CC(=O)O[C@@]12CO[C@@H]1C[C@H](O)[C@@]1(C)C(=O)[C@H](O)C3=C(C)[C@@H](OC(=O)[C@H](O)[C@@H](NC(=O)OC(C)(C)C)c4ccccc4)C[C@@](O)([C@@H](OC(=O)c4ccccc4)[C@H]21)C3(C)C` [Docetaxel] + COc1ccc(-c2ccc3c(N4CCOCC4)nc(N4C[C@@H](C)O[C@@H](C)C4)nc3n2)cc1CO [KU0063794] (first compound 0.0001 µM, partner dose 0.02 µM): the “cleaved PARP positive nuclei fraction” value was found to be 45.6%.

Take `CS(=O)(=O)c1ccc(C(=O)Nc2ccc(Cl)c(-c3ccccn3)c2)c(Cl)c1` [vismodegib] + COc1cc(N2CCC(N3CCN(C)CC3)CC2)ccc1Nc1ncc(Cl)c(Nc2ccccc2S(=O)(=O)C(C)C)n1 [NVP-TAE684] (first compound 1 µM, partner dose 0.08 µM): the “cleaved PARP positive nuclei fraction” value was 109%.

In the case of `NC(=O)c1ccc(N(C(N)=O)c2c(F)cccc2F)nc1-c1ccc(F)cc1F` + O=C(O)C(=O)Nc1sc2c(c1C(=O)O)CCNC2 [TCS401] (first compound 0.4 µM, partner dose 1.66667 µM), the “cleaved PARP positive nuclei fraction” value is 106%.

With `CCN(CC)CCNC(=O)c1c(C)[nH]c(/C=C2\C(=O)Nc3ccc(F)cc32)c1C` [sunitinib] + CC(C)CCN1c2nc(Nc3cc(F)c(O)c(F)c3)ncc2N(C)C(=O)C1C [BID1870] (first compound 0.4 µM, partner dose 0.2 µM), the “cleaved PARP positive nuclei fraction” value was found to be 189%.

The subject of a further test is LB2518-MEL. The test is described as above. The settings on record: library dose: low library concentration; 72 h.
Regarding `NC1(c2ccc(-c3nc4ccn5c(=O)[nH]nc5c4cc3-c3ccccc3)cc2)CCC1` + Cc1cc([N+](=O)[O-])ccc1NS(=O)(=O)c1cc(Cl)ccc1Cl [FH535] (first compound 0.4 µM, partner dose 1 µM), the “cleaved PARP positive nuclei fraction” value came to 86.8%.

In the case of `NC1(c2ccc(-c3nc4ccn5c(=O)[nH]nc5c4cc3-c3ccccc3)cc2)CCC1` + O=S(=O)(c1ccccc1)N(CC(F)(F)F)c1ccc(C(O)(C(F)(F)F)C(F)(F)F)cc1 [T0901317] (first compound 0.4 µM, partner dose 1.4 µM), the “cleaved PARP positive nuclei fraction” value amounted to 74%.

On to `CS(=O)(=O)c1ccc(C(=O)Nc2ccc(Cl)c(-c3ccccn3)c2)c(Cl)c1` [vismodegib] + Oc1cc(-c2nc(-c3ccccc3)[nH]c2-c2ccncc2)ccc1Cl [L779450] (first compound 1 µM, partner dose 0.2 µM), for which the “cleaved PARP positive nuclei fraction” value was determined as 41.1%.

On to `C[C@]1(O)C[C@@H](c2nc(-c3ccc4ccc(-c5ccccc5)nc4c3)c3c(N)nccn32)C1` + CC(C)CCN1c2nc(Nc3cc(F)c(O)c(F)c3)ncc2N(C)C(=O)C1C [BID1870] (first compound 0.4 µM, partner dose 0.2 µM), for which the “cleaved PARP positive nuclei fraction” value was 38.4%.

As to `Cn1cnc2c(F)c(Nc3ccc(Br)cc3Cl)c(C(=O)NOCCO)cc21` [selumetinib] + CC(C)CCN1c2nc(Nc3cc(F)c(O)c(F)c3)ncc2N(C)C(=O)C1C [BID1870] (first compound 0.015 µM, partner dose 0.2 µM), the “cleaved PARP positive nuclei fraction” value was 220%.

Regarding `C[C@]1(O)C[C@@H](c2nc(-c3ccc4ccc(-c5ccccc5)nc4c3)c3c(N)nccn32)C1` + CCN(CC)CCCCNc1ncc2cc(-c3cc(OC)cc(OC)c3)c(NC(=O)NC(C)(C)C)nc2n1 [PD173074] (first compound 0.4 µM, partner dose 0.1 µM), the “cleaved PARP positive nuclei fraction” value stood at 83.4%.

Consider `CCCCCCCCc1ccc(CCC(N)(CO)CO)cc1` [fingolimod] + Cn1cc(/C=C2\C(=O)Nc3cccnc32)c2ccccc21 [GW441756] (first compound 2 µM, partner dose 0.4 µM), for which the “cleaved PARP positive nuclei fraction” value was 69.2%.

With `CS(=O)(=O)c1ccc(C(=O)Nc2ccc(Cl)c(-c3ccccn3)c2)c(Cl)c1` [vismodegib] + COc1ccc(COc2ccc(Cc3cnc(N)nc3N)cc2OC)cc1 [GW2580] (first compound 1 µM, partner dose 1 µM), the “cleaved PARP positive nuclei fraction” value turned out to be 61.7%.

`CC(=O)O[C@@]12CO[C@@H]1C[C@H](O)[C@@]1(C)C(=O)[C@H](O)C3=C(C)[C@@H](OC(=O)[C@H](O)[C@@H](NC(=O)OC(C)(C)C)c4ccccc4)C[C@@](O)([C@@H](OC(=O)c4ccccc4)[C@H]21)C3(C)C` [Docetaxel] + c1cc(-c2cnn3cc(-c4ccc(OCCN5CCCCC5)cc4)cnc23)ccn1 [Dorsomorphin] (first compound 0.0001 µM, partner dose 0.4 µM): the “cleaved PARP positive nuclei fraction” value came out at 114%.

Turning to `CS(=O)(=O)c1ccc(C(=O)Nc2ccc(Cl)c(-c3ccccn3)c2)c(Cl)c1` [vismodegib] + O=C(Nc1ccccc1)c1cc([N+](=O)[O-])ccc1Cl [GW9662] (first compound 1 µM, partner dose 2 µM), the “cleaved PARP positive nuclei fraction” value came to 65.3%.

For the molecule `NC(=O)c1ccc(N(C(N)=O)c2c(F)cccc2F)nc1-c1ccc(F)cc1F` + COc1ccc(-c2ccc3c(N4CCOCC4)nc(N4C[C@@H](C)O[C@@H](C)C4)nc3n2)cc1CO [KU0063794] (first compound 0.4 µM, partner dose 0.02 µM), the “cleaved PARP positive nuclei fraction” value was determined as 76.6%.

Consider `CN(c1ncccc1CNc1nc(Nc2ccc3c(c2)CC(=O)N3)ncc1C(F)(F)F)S(C)(=O)=O` + Oc1nc(-c2ccc(C(F)(F)F)cc2)nc2c1CSCC2 [XAV939] (first compound 0.08 µM, partner dose 2 µM), for which the “cleaved PARP positive nuclei fraction” value turned out to be 68.3%.

Consider `CS(=O)(=O)c1ccc(C(=O)Nc2ccc(Cl)c(-c3ccccn3)c2)c(Cl)c1` [vismodegib] + COC(=O)c1sccc1S(=O)(=O)Nc1ccc(Nc2ccccc2)cc1OC [GSK0660] (first compound 1 µM, partner dose 1 µM), for which the “cleaved PARP positive nuclei fraction” value amounted to 39.6%.

Take `Cn1sc(=O)n(Cc2ccccc2)c1=O` + O=C(O)C(=O)Nc1sc2c(c1C(=O)O)CCNC2 [TCS401] (first compound 0.4 µM, partner dose 1.66667 µM): the “cleaved PARP positive nuclei fraction” value was 32.9%.

As for `Cn1cnc2c(F)c(Nc3ccc(Br)cc3Cl)c(C(=O)NOCCO)cc21` [selumetinib] + N#Cc1c(O)c2c(-c3ccc(-c4ccccc4O)cc3)csc2[nH]c1=O [A769662] (first compound 0.015 µM, partner dose 2 µM), the “cleaved PARP positive nuclei fraction” value worked out at 99.5%.

In the case of `CCN(CC)CCNC(=O)c1c(C)[nH]c(/C=C2\C(=O)Nc3ccc(F)cc32)c1C` [sunitinib] + N#Cc1c(O)c2c(-c3ccc(-c4ccccc4O)cc3)csc2[nH]c1=O [A769662] (first compound 0.4 µM, partner dose 2 µM), the “cleaved PARP positive nuclei fraction” value is 83.4%.

Turning to `CS(=O)(=O)c1ccc(C(=O)Nc2ccc(Cl)c(-c3ccccn3)c2)c(Cl)c1` [vismodegib] + Cn1cc(/C=C2\C(=O)Nc3cccnc32)c2ccccc21 [GW441756] (first compound 1 µM, partner dose 0.4 µM), the “cleaved PARP positive nuclei fraction” value was 122%.

Consider `COc1ccc(C2=N[C@@H](c3ccc(Cl)cc3)[C@@H](c3ccc(Cl)cc3)N2C(=O)N2CCNC(=O)C2)c(OC(C)C)c1` [Nutlin-3] + Cn1cc(/C=C2\C(=O)Nc3cccnc32)c2ccccc21 [GW441756] (first compound 0.1 µM, partner dose 0.4 µM), for which the “cleaved PARP positive nuclei fraction” value turned out to be 69.7%.

For the molecule `COc1ccc(C2=N[C@@H](c3ccc(Cl)cc3)[C@@H](c3ccc(Cl)cc3)N2C(=O)N2CCNC(=O)C2)c(OC(C)C)c1` [Nutlin-3] + COc1ccc(COc2ccc(Cc3cnc(N)nc3N)cc2OC)cc1 [GW2580] (first compound 0.1 µM, partner dose 1 µM), the “cleaved PARP positive nuclei fraction” value is 182%.

On to `C[C@@H](N)c1ccc(C(=O)Nc2ccnc3[nH]ccc23)cc1` + O=C1NC(=O)/C(=C/c2ccc(-c3ccc(F)cc3O)o2)S1 [AS252424] (first compound 0.4 µM, partner dose 1 µM), for which the “cleaved PARP positive nuclei fraction” value stood at 66.1%.

With `C[C@]1(O)C[C@@H](c2nc(-c3ccc4ccc(-c5ccccc5)nc4c3)c3c(N)nccn32)C1` + Oc1cc(-c2nc(-c3ccccc3)[nH]c2-c2ccncc2)ccc1Cl [L779450] (first compound 0.4 µM, partner dose 0.2 µM), the “cleaved PARP positive nuclei fraction” value was 93.6%.

Regarding `CCCCCCCCc1ccc(CCC(N)(CO)CO)cc1` [fingolimod] + COC(=O)c1sccc1S(=O)(=O)Nc1ccc(Nc2ccccc2)cc1OC [GSK0660] (first compound 2 µM, partner dose 1 µM), the “cleaved PARP positive nuclei fraction” value amounted to 31.2%.

Take `CCN(CC)CCNC(=O)c1c(C)[nH]c(/C=C2\C(=O)Nc3ccc(F)cc32)c1C` [sunitinib] + O=C1NC(=O)/C(=C/c2ccc(-c3ccc(F)cc3O)o2)S1 [AS252424] (first compound 0.4 µM, partner dose 1 µM): the “cleaved PARP positive nuclei fraction” value stood at 80.4%.

Take `NC1(c2ccc(-c3nc4ccn5c(=O)[nH]nc5c4cc3-c3ccccc3)cc2)CCC1` + CC(C)CCN1c2nc(Nc3cc(F)c(O)c(F)c3)ncc2N(C)C(=O)C1C [BID1870] (first compound 0.4 µM, partner dose 0.2 µM): the “cleaved PARP positive nuclei fraction” value worked out at 80.5%.

Take `CC(=O)O[C@@]12CO[C@@H]1C[C@H](O)[C@@]1(C)C(=O)[C@H](O)C3=C(C)[C@@H](OC(=O)[C@H](O)[C@@H](NC(=O)OC(C)(C)C)c4ccccc4)C[C@@](O)([C@@H](OC(=O)c4ccccc4)[C@H]21)C3(C)C` [Docetaxel] + CCCCCCCCCCCC1=C(O)C(=O)C=C(O)C1=O [Embelin] (first compound 0.0001 µM, partner dose 1.2 µM): the “cleaved PARP positive nuclei fraction” value worked out at 110%.
